Data from article PMC7244324.
These are yes or no findings as the source states them, for the method shown. Binding seen in cells or lysates may run through a third protein. Some entries that bind do so weakly or less than the wild type. Sequences can lack the tags named with a protein.

By UniProt entry, the sequences of proteins in these tests, tags left out.
UniProt P62993: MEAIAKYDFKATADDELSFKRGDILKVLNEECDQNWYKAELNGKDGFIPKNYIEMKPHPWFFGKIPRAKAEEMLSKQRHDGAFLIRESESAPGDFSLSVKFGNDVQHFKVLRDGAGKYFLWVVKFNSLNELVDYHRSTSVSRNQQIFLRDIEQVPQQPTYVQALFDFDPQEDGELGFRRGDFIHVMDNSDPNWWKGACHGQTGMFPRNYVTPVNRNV

Target: T1, Reptilian reovirus membrane fusion protein p14, wild type, C-terminal eGFP tag (reptilian orthoreovirus) (UniProt Q80FJ1)
T1 sequence: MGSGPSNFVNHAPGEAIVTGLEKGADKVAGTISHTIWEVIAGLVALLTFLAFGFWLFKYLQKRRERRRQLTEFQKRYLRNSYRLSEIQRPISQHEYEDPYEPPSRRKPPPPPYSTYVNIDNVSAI
Assay: co-IP; GFP-tagged p14 constructs captured from HEK293T lysate on GFP-Trap beads overnight at 4°C (150 mM NaCl, 25 mM HEPES, 1 mM EDTA, 0.5% NP-40, phosphatase and protease inhibitors); blot probed with α-Grb2

## Grb2 in HEK293T lysate (from UniProt P62993 1-217)
  binding: binds
